Binding data for 3 molecules are collected here from patent publication US20210277112A1 (BIOND BIOLOGICS, published 2021).

Sequences of proteins named here, by UniProt entry; tags and fusion partners are left off. A change or cut given only in a name is not applied to a line headed by its entry.
UniProt Q8NHL6: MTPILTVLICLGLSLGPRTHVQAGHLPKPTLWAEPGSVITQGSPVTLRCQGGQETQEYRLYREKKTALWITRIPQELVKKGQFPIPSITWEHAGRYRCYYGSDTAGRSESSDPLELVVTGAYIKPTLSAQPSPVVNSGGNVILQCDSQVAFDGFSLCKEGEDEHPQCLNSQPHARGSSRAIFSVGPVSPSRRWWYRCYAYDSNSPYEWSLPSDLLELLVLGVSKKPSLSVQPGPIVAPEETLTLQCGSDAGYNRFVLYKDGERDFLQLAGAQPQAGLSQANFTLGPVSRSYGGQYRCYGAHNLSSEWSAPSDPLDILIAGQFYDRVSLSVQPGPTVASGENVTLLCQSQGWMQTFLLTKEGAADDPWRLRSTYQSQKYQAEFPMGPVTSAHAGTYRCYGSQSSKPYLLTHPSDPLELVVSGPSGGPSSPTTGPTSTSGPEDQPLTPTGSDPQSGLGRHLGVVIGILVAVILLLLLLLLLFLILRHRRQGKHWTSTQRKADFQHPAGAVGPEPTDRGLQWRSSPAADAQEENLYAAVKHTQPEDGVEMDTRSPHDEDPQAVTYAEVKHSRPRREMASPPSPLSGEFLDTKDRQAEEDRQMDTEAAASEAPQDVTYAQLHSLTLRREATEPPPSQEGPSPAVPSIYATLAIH

Substitutions are numbered along the chain they refer to. Results are given in words; binding and its absence hold for the method and conditions named. Some entries that bind do so weakly or less than the wild type.

The target in experiment [1] is T1, ILT2/CD3z chimera on BW5417.3 cells (human; mouse, UniProt P24161 31-164, limits assumed).
T1 construct: domain: trans-membrane and cytoplasmic residues; Expressed on the surface of the mouse BW T cell line; also called BW-ILT2; BW/ILT2z
The experiment can be described thus: flow cytometry on BW cells transfected with human ILT2, PE. On the technique in general: Flow cytometry measures light scatter and fluorescence of single cells or particles in a stream.

Experiment [2] has as its target T1, ILT2/CD3z chimera on BW5417.3 cells. Put plainly: flow cytometry on BW cells transfected with ILT2.
Experiment [3] deals with recombinant human ILT2-Fc conjugated with biotin (human) (UniProt Q8NHL6). The experiment can be described thus: flow cytometry blocking assay: ILT2-biotin binding to cells expressing HLA-G.
Experiment [4] concerns the target T1, ILT2/CD3z chimera on BW5417.3 cells. Put plainly: flow cytometry on BW cells transfected with human ILT2.
The target is the same in experiment [5]. The experiment can be described thus: flow cytometry titration on BW cells transfected with human ILT2, y axis FAB.

B1: 15G8 (original hybridoma-derived murine anti-ILT2 antibody) (antibody, V domains shown)
VH: DVQLQGSGPGLVKPSQSLSLTCSVTGYSITSGYYWNWIRQFPGNKLEWMGYISYDGSNNYNPSLKNRISITRDTSKNQFFLKLNSVTSEDTATYYCAHGYSYYYAMDCWGQGTSVTVSS
VL: DIQMTQTTSSLSASLGDRVTISCRTSQDISNYLNWYQQKPDGTVKLLISYTSRLHSGVPSRFSGSGSGTDYSLTISNLEQEDIATYFCQQGNTLPTFGSGTKLEIK
notes: also called 15G8 antibody
Take B1: the binding entry in experiment [1] and in experiment [2] was “binds” in each case.

B2: chimeric 15G8 (antibody, V domains shown)
VH: B1 VH
VL: B1 VL
notes: Constant regions not described; also called chimeric murine 15G8
Regarding B2, the binding result in experiment [3], in experiment [4] and in experiment [5] was “binds” throughout.

B3: humanized 15G8 (alanine variant) (antibody, V domains shown)
VH: B1 VH with Q16E, S17T, N44K, S69T, T71S, F80S, S88A, E89A, C108A
VL: DIQMTQSPSSLSASVGDRVTITCRTSQDISNYLNWYQQKPGKAVKLLISYTSRLHSGVPSRFSGSGSGTDYTLTISSLQPEDFATYYCQQGNTLPTFGQGTKLEIK
notes: also called 15G8 humanized antibody; humanized antibody 15G8
Turning to B3, the binding entry in experiment [4] and in experiment [5] was “binds” each time.
